Measured values reported in US12516056B2, “Compounds for inhibition of janus kinase 1” (MANKIND PHARMA LTD., priority 2019, dated 2026).

Assays:
[1] = system: STAT5 phosphorylation by GMCSF in TF-1 cells; experiment: JAK cellular assay: STAT5 phosphorylation by GMCSF in TF-1 cells (HTRF); details: Homo sapiens, TF-1, read-out: Cell based IC50 (μM) TF-1/GM-CSF
Protocol: TF-1 cells were starved overnight in OptiMEM medium with 0.5% charcoal stripped fetal bovine serum, 0.1 mM nonessential amino acids (NEAA), 1 mM sodium pyruvate and without phenol red in CO2 incubator maintained at 37° c. Next day, cells were resuspended in RPMI without phenol red and dispensed into a 96 well plate at a final cell density of 1,20,000 cells per well. Compounds were diluted in DMSO and added to cells and incubated for 30 minutes in CO2 incubator maintained at 37° c. Final DMSO concentration in cell based assay was 0.2%. Human recombinant cytokines, IL-6 (30 ng/ml) and GMCSF (5 ng/ml) were added to the plate containing cells along with compound and incubated for 20 minutes with gentle tapping at every 5 minutes once. Compound mediated effects on STAT3 and STAT5 phosphorylation was measured in the lysates prepared by using CISBIO pSTAT3 and pSTAT5 detection kits by HTRF method. Background signal obtained from cells which were not activated with cytokines, was subtracted from vehicle controls and compound treated wells.

[2] = system: IFN-γ production in NK 92 cells by IL-12; experiment: IFN-γ production in NK 92 cells by IL-12 (ELISA); details: NK92, IFN-γ detection from cell supernatants, read-out: Cell based IC50 (μM) NK-92/IL-12*
Protocol: NK 92 cells were cultured in medium without IL-2 for overnight. Next day, 5000 cells per well NK 92 cells were seeded in a 96 well plate. Compounds were added to cells and incubated for 1 hour. Later IL-12, 10 U/ml was added to cells and incubated for overnight. Supernatant was collected from the wells and IFN-7 secretion was measured by using human IFN-7 ELISA kit. Absorbance was measured at 450 nm in BMG FLUOstar. Background signal obtained from cells which were not activated with cytokines, was subtracted from vehicle controls and compound treated wells.

[3] = system: STAT5 phosphorylation by IL-2 in HT-2 cells; experiment: STAT5 phosphorylation by IL-2 in HT-2 cells (HTRF); details: HT2, read-out: Cell based IC50 (μM) HT-2/IL-2
Protocol: HT-2 cells were starved […] in RPMI phenol red with 10% fetal bovine serum for 4 hours in CO2 incubator maintained at 37° c. Compounds were diluted in DMSO and added to 96 well plate containing a final density of 1,20,000 cells per well. Cells and compounds are incubated for 30 minutes in CO2 incubator maintained at 37° C. and final DMSO concentration in cell based assay was 0.2%. Human recombinant cytokine, IL-2 (50 U/ml) was added to the plate containing cells and compound and incubated for 20 minutes with gentle tapping/shaking at every 5 minutes once. Compound mediated effects on STAT5 phosphorylation was measured in the lysates prepared by using CISBIO pSTAT5 detection kit by HTRF method. Background signal obtained from cells which were not activated with cytokines, was subtracted from vehicle controls and compound treated wells.

## C[C@@H]1CCN(C(=O)CC#N)C[C@@H]1N(C)c1ncnc2[nH]ccc12 [Tofacitinib, tofacitinib, reference compound]
[1]
  IC50: 0.24 µM
[2]
  IC50: 3 µM
[3]
  IC50: 0.019 µM
